Results from paper PMC12040169 (PLOS Biology, 2025).
The other results are listed elsewhere or left out.

What follows are compounds tested on T1, CTL2-GFP (C. trachomatis L2/434/Bu, GFP-expressing). Details: bulk GFP, single well; 28.5 h, 10 µM; inhibitor.
T1 construct: L2/434/Bu, GFP-expressing
Parameters: species or system HeLa; Intracellular C. trachomatis growth in HeLa cells, bulk GFP fluorescence relative to DMSO

| SMILES | % of control remaining [%] |
| --- | --- |
| CCCc1nc(CN2CCN(c3ccc4nncn4n3)CC2)cs1 [CBK305330] | 106.477 |
| COc1cccc(C2CCCN2C(=O)CC2CCN(C(=O)CC3CCCCC3)CC2)c1 (stereo not drawn) [CBK286264] | 137.474 |
| CC(C)C(=O)NC(NC(=S)Nc1cccc2cccnc12)C(Cl)(Cl)Cl (stereo not drawn) [CBK261051] | 100.728 |
| Cc1ccc(-c2nn(CCC#N)cc2C(=O)N2CCOCC2)cc1 [CBK305939] | 82.0458 |
| CSc1nnc(CC2CCN(C(=O)c3cc(C)on3)CC2)n1C [CBK307481] | 106.285 |
| Nc1ncc(-c2ccc(Cl)cc2)nc1-c1ccc(N2CCOCC2)cc1 [CBK063953] | 90.5332 |
| Nc1nonc1-c1cccnc1 [CBK006120] | 100 |
| O=C(O)CC1S/C(=N/N=C2/C(=O)Nc3ccccc32)N(c2ccc(O)cc2)C1=O (stereo not drawn) [CBK263723] | 92.4206 |
| CC(C)c1nccn1-c1ccc(NC(=O)CCCn2ccnc2)cc1 [CBK281380] | 98.6368 |
| COc1cc(Cn2ncc(N3CCCCC3)cc2=O)cc(OC)c1 [CBK307662] | 94.4285 |
| Cc1nccn1CCNC(=O)c1cc(C2CCCCC2)no1 [CBK283295] | 116.119 |
| CS(=O)(=O)c1ccc(Cn2ccnc(N3CCC(Sc4ccccc4)CC3)c2=O)cc1 [CBK144444] | 115.2 |
| O=C(CCn1cnc2ccccc21)NNC(=O)Nc1cccc(C(F)(F)F)c1 [CBK269093] | 145.56 |
| CCOC(=O)c1ccc(-c2nccnc2Oc2cccc(OC)c2)cc1 [CBK107115] | 183.813 |
| COc1ccc(-c2cccc(C3CCCN(C(=O)c4ccc(F)cc4)C3)n2)cc1 (stereo not drawn) [CBK286107] | 119.314 |
| CCC(CO)Nc1nccnc1-c1cccc(C(=O)N2CCN(C)CC2)c1 (stereo not drawn) [CBK037087] | 175.29 |
| Cn1ccnc1C1(O)CCN(C(=O)Nc2ccccc2Cl)CC1 [CBK282278] | 109.624 |
| O=C(Nc1ccc(S(=O)(=O)Nc2ncccn2)cc1)c1cc([N+](=O)[O-])ccc1Cl [CBK263717] | 137.203 |
| COc1cccc(-c2noc(C3CCN(CCc4ccc(F)cc4)CC3)n2)c1 [CBK051461] | 106.355 |
| CCOC(=O)c1c(NC(=O)c2ccccc2C(=O)O)sc2c1CCCC2 [CBK116364] | 122.79 |
| O=C(NCc1ccco1)c1ccc(-c2ccoc2)nc1 [CBK156279] | 94.0182 |

| SMILES | % of control remaining [%] |
| --- | --- |
| O=C(CNC(=O)c1ccc(Br)cc1)NC1CCCC1 [CBK269591] | 143.192 |
| CC(=O)Cn1cnc2c(cnn2-c2cccc(Cl)c2)c1=O [CBK287692] | 127.845 |
| O=C(Nc1ccccc1)OC1CCCCC1 [CBK015569] | 88.6116 |
| CC(C)C(=O)N1CCN(c2ccccc2NC(=O)c2ccc(N3CCCCC3)c([N+](=O)[O-])c2)CC1 [CBK267609] | 122.419 |
| O=C(O)c1ccccc1NS(=O)(=O)/C=C/c1ccccc1 [CBK042363] | 116.507 |
| O=C(CCSc1c(Cl)cccc1[N+](=O)[O-])Nc1ccc(Br)c2cccnc12 [CBK266777] | 119.695 |
| CCN1CCc2cc(CN3CCCC(Cn4ccnc4C)C3)ccc21 (stereo not drawn) [CBK281965] | 112.201 |
| CCN(CCO)c1ccc(Nc2nc(-c3cccc4ccccc34)cn3ccnc23)cc1 [CBK066243] | 173.636 |
| CNC(=O)CN1C[C@H](NC(=O)c2cccc3c2NCCC3)[C@@H](C(C)C)C1 [CBK307073] | 106.543 |
| O=c1ccc(-c2ccc(F)cc2)nn1CC1CCNCC1 [CBK284216] | 107.659 |
| O=C(CSc1nnc(-c2cccnc2)n1-c1ccc(Br)cc1)Nc1ccc(F)cc1 [CBK266174] | 128.905 |
| CC(=O)c1ccc(-c2nccnc2NCC(O)COc2ccccc2)s1 (stereo not drawn) [CBK036976] | 114.191 |
| O=C(CSc1nc2ccccc2c(=O)[nH]1)NCCO [CBK266469] | 99.7384 |
| O=C1CCC(=O)N1CCN1C(=O)C2(CC(=O)N(CCC(F)(F)F)C2=O)c2ccccc21 (stereo not drawn) [CBK076031] | 101.274 |
| CN(C)CCN(C)C(=O)c1ccc(-c2cc(C(F)(F)F)cc(C(F)(F)F)c2)nc1N(C)C [CBK106069] | 121.36 |
| O=C(NC1CC1)c1ccc(-n2cccn2)c(C#Cc2cccnc2)c1 [CBK282449] | 144.577 |
| O=C(O)C1CCCCN1Cc1ccccc1 (stereo not drawn) [CBK261687] | 100.917 |
| Cc1cc(N2CCC(N(C)C)CC2)nc(N)n1 [CBK167267] | 134.714 |
| CC(C)NC(=O)NC(=O)C1CCN(CCOc2ccc(Cl)cc2Cl)CC1 [CBK034949] | 102.447 |
| O=C(Cn1c(=O)oc2ccccc21)Nc1ccc(S(=O)(=O)Nc2nccs2)cc1 [CBK267686] | 120.379 |
| CCC1CCCCN1C(=O)c1cc(C)ccc1F (stereo not drawn) [CBK082754] | 157.69 |

Rewritten bar-delimited: part of the list above
SMILES | % of control remaining [%]
O=C(CNC(=O)c1ccc(Br)cc1)NC1CCCC1 [CBK269591] | 143.192
CCN(CCO)c1ccc(Nc2nc(-c3cccc4ccccc34)cn3ccnc23)cc1 [CBK066243] | 173.636
Cc1cc(N2CCC(N(C)C)CC2)nc(N)n1 [CBK167267] | 134.714
O=C(Cn1c(=O)oc2ccccc21)Nc1ccc(S(=O)(=O)Nc2nccs2)cc1 [CBK267686] | 120.379

Copied from above for reference:

| SMILES | % of control remaining [%] |
| --- | --- |
| O=C(Cn1c(=O)oc2ccccc21)Nc1ccc(S(=O)(=O)Nc2nccs2)cc1 [CBK267686] | 120.379 |
| CCC1CCCCN1C(=O)c1cc(C)ccc1F (stereo not drawn) [CBK082754] | 157.69 |

Later entries:

| SMILES | % of control remaining [%] |
| --- | --- |
| Cn1c(C(=O)O)cc2cc(Oc3ccccc3)ccc21 [CBK286873] | 121.207 |
| CS(=O)(=O)N(CC(=O)O)c1ccc2c(c1)OCCO2 [CBK287151] | 122.976 |
| Nc1ccc(Sc2nc3ccccc3nc2C(F)(F)F)cc1 [CBK089560] | 112.309 |
| Cc1ccccc1-n1ncc2c(=O)n(CC(=O)Nc3ccccc3)cnc21 [CBK287689] | 118.134 |
| O=c1[nH]cnc2c1cnn2Cc1ccccc1Cl [CBK287999] | 95.5081 |
| O=C(COc1ccccc1)Nc1ccccc1CO [CBK263596] | 95.9712 |
| COc1ccc2[nH]c(=O)c(CNc3ccc(CCc4nc5ccccc5n4C)cc3)cc2c1 [CBK286162] | 123.737 |
| Cc1cccc(-n2cnc3cc(C(=O)NCc4cccnc4)ccc32)c1 [CBK294455] | 146.85 |
| CN(CCN1CCCCC1)C(=O)c1cc2c([nH]1)CCCC2 [CBK281836] | 151.381 |
| O=C1CC(c2ccc(C(=O)O)cc2)c2sccc2N1 (stereo not drawn) [CBK287119] | 125.341 |
| CCCNS(=O)(=O)c1ccc(OCC(=O)N2CCN(C)CC2)c(C)c1 [CBK270169] | 122.452 |
| O=C1NC/C=C/CC2(CCN(C(=O)CCc3cccnc3)CC2)C(=O)NCCOc2ccccc21 [CBK292007] | 128.842 |
| OCCC1CNCCN1CC1CCCCC1 (stereo not drawn) [CBK270115] | 123.821 |
| Cc1csc(C(Cc2cccs2)NC(=O)Cc2ccccn2)n1 (stereo not drawn) [CBK285005] | 105.003 |
| COCCc1nsc(N2CCCC(c3nccs3)C2)n1 (stereo not drawn) [CBK305110] | 176.96 |
| Cc1ccccc1S(=O)(=O)Nc1nccnc1-c1ccc2c(c1)OCO2 [CBK050941] | 90.4061 |
| Cc1cc2ccccc2n2c(=O)n(CC(=O)N3CCCCCC3)nc12 [CBK283883] | 120.226 |
| NNC(=O)CCn1c2ccc(Cl)cc2c2cc(Cl)ccc21 [CBK261413] | 113.262 |
| CCN1CCN(c2ccc(NC(=O)Cn3cnc4c(=O)n(C)c(=O)n(C)c43)cc2Cl)CC1 [CBK269535] | 135.221 |
| O=C(CSc1nc(-c2ccccc2)cc(=O)[nH]1)NCc1ccccc1 [CBK287734] | 120.045 |
| CCCNS(=O)(=O)c1cc(C(=O)O)ccc1OC [CBK287152] | 117.165 |

| SMILES | % of control remaining [%] |
| --- | --- |
| CC(=O)NC[C@@H]1C=C(C)[C@H](CC(=O)Nc2ccccn2)C[C@H]1C(C)C [CBK289209] | 115.538 |
| CC(C)(C)NC(=O)N1CCC(=O)N1 [CBK007341] | 126.118 |
| O=C1NC2(CCc3ccccc31)CCN(C(=O)c1ccncc1)C2 (stereo not drawn) [CBK283336] | 120.261 |
| CC1=NNC(=O)C1Cc1ccc(F)cc1 (stereo not drawn) [CBK067755] | 78.9414 |
| Cn1nnc2cc(NCC3(CNC(=O)OC(C)(C)C)CC3)ccc21 [CBK304777] | 107.671 |
| CCCc1c(C)nc2ccc(C)cc2c1SCC(=O)O [CBK263537] | 100 |
| CCOC(=O)n1c(=O)n2n(c1=O)CC=CC2 [CBK023102] | 109.721 |
| C=CCN1C(=O)C2(CC(=O)N(Cc3ccccc3)C2=O)c2cc(OC)ccc21 (stereo not drawn) [CBK075281] | 105.324 |
| Cc1nc(COc2ccc(C(=O)N3CCCC(C(N)=O)C3)cc2)no1 (stereo not drawn) [CBK305660] | 105.499 |
| Cn1ccc2ccc(C(=O)Nc3nccs3)cc21 [CBK287910] | 126.063 |
| CC(=O)Nc1ccc(NC(=O)CCn2c(-c3cccc(C)c3)n[nH]c2=S)cc1Cl [CBK296656] | 163.468 |
| CC(=O)Nc1cccc(-n2nnnc2SCC2CCCN(C)C2)c1 (stereo not drawn) [CBK305294] | 106.795 |
| CCN(Cc1cnc(C)s1)[C@H]1CCO[C@@H](c2ccccc2-c2ccc(OC)cc2)C1 [CBK285853] | 97.7073 |
| O=C(CN1C(=O)COc2ccc(Cl)cc21)Nc1ccc2[nH]c(=O)[nH]c2c1 [CBK268295] | 75.6019 |
| O=C(O)c1cc(Br)cc2c3c([nH]c12)CCCC3 [CBK100973] | 124.731 |
| CC(C)(C)n1ncc2c(=O)n(CC(=O)Nc3ccccc3)cnc21 [CBK287541] | 74.3951 |
| COc1ccc(Oc2nccnc2N2CCN(Cc3ccc(C(F)(F)F)cc3)CC2)cc1OC [CBK083044T] | 78.7829 |
| O=C1NC[C@@H](Cc2ccccc2)NC(=O)C2(C/C=C/COc3ccccc31)CCN(Cc1ncccc1F)CC2 [CBK292193] | 84.8667 |
